Experimental data reported in PubChem BioAssay AID1487 (National Center for Advancing Translational Sciences (NCATS), 2009).
This is one part of the list. Further columns of the screen follow, without active or inactive calls. The list favours compounds with an active or inconclusive main result. Potencies come from curve fits of mixed quality, noted in brackets.

Test: qHTS Assay for Modulators of Lamin A Splicing
Settings: HeLa LMNA splicing GFP/RFP minigene ratio, 48 h
How it was run: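 S3 HeLa cells stably expressing lamin A-EGFP splicing minigene plus DsRed2, 600 cells/well, 48 h compound exposure at 37C. Laser-scanning cytometry; analysed as GFP (500-530 nm)/RFP (575-640 nm) total intensity ratio; 0.5% DMSO vehicle.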

[1] = measured here: RFP viability control channel
[2] = measured here: GFP splicing reporter channel

SMILES	AC50 [1]	AC50 [2]
COC(=O)C1=C(C)N(c2cccc(OC)c2)C(=O)/C1=C\c1ccco1	35.5 µM [rising, single point]	–
Cc1ccc(C(=O)NCc2ccccc2)cc1NC(=O)c1nsc2ccccc12	31.6 µM [rising, single point]	35.5 µM [rising, single point]
O=C(CCCSc1nc2ccccc2[nH]1)N1CCN(c2ccc([N+](=O)[O-])cc2)CC1	15.8 µM [rising, single point]	–
Cc1oc2cc(O)ccc2c(=O)c1Oc1ccccc1Br	–	25.1 µM [falling, partial curve]
CCOc1nc(NCCO)nc(Nc2ccc([N+](=O)[O-])cc2)n1	0.631 µM [falling, full curve, poor fit]	0.355 µM [falling, full curve]
Cc1c(NC(=O)CN2C(=O)c3ccccc3C2=O)c(=O)n(-c2ccccc2)n1C	0.447 µM [falling, partial curve]	0.708 µM [falling, full curve]
Cc1ccc(-c2n[nH]c(=S)n2/N=C/c2cccs2)cc1	0.631 µM [rising, full curve]	–
O=[N+]([O-])c1ccc(Cl)cc1Sc1nc2ccccc2o1	25.1 µM [rising, single point]	–
N#CCCN1CCN(C(=S)c2ccc(-c3ccc(Cl)cc3)o2)CC1	–	12.6 µM [rising, single point]
Cc1cc(C)cc(N/C(N)=N/c2nc(C)cc(C)n2)c1	12.6 µM [rising, partial curve]	10 µM [rising, single point]
CC(C)CCSc1nc(N)c(C#N)cc1C#N	0.178 µM [rising, full curve, poor fit]	–
c1ccc2c(c1)CCN(c1ncnc3nc[nH]c13)C2	14.1 µM [rising, single point]	–
COC(=O)Cn1c(=O)oc2ccc(C)cc21	–	0.141 µM [rising, full curve, poor fit]
COc1ccc(-c2nc(NC(=O)c3n[nH]c(=O)c4ccccc34)sc2C)cc1	1.78 µM [rising, full curve]	1.58 µM [rising, full curve, poor fit]
O=C(c1ccc(Cn2cc(Br)cn2)cc1)N1N=C(C(F)F)CC1(O)C(F)F (stereo unspecified)	7.08 µM [rising, partial curve, poor fit]	0.158 µM [rising, full curve, poor fit]
Cc1ccsc1/C=N/NC(=O)CSCc1ccc(Cl)cc1	12.6 µM [rising, single point]	–
Cc1cc(=O)oc2cc(OCC(=O)N3CCc4ccccc4C3)ccc12	1.41 µM [falling, partial curve]	–
O=S(=O)(c1cccc2c(Cl)cccc12)N1CCCNCC1	0.1 µM [falling, full curve, poor fit]	6.31 µM [falling, partial curve]

Copied from the list:
O=[N+]([O-])c1ccc(Cl)cc1Sc1nc2ccccc2o1 | AC50 [1]: 25.1 µM [rising, single point]
N#CCCN1CCN(C(=S)c2ccc(-c3ccc(Cl)cc3)o2)CC1 | AC50 [2]: 12.6 µM [rising, single point]

More entries

SMILES	AC50 [1]	AC50 [2]
CCC(CC)C(=O)Nc1cc(Cl)ccc1C	–	0.0794 µM [rising, full curve, poor fit]
CC(=O)Nc1ccc(S(=O)(=O)NC2=C(N3CCN(Cc4ccccc4)CC3)C(=O)c3ccccc3C2=O)cc1	31.6 µM [rising, single point]	12.6 µM [rising, single point]
CCOC(=O)c1c(C)[nH]c(C)c1C(=O)CSc1nnc(-c2ccco2)n1Cc1ccccc1	6.31 µM [falling, single point]	–
CCOC(=O)C1=C(C)N(C)C(C)=C(C(=O)OCC)C1c1ccc(Cl)cc1	–	35.5 µM [falling, single point]
COC(=O)c1sc(S(=O)(=O)Nc2ccc(C)c(C)c2)c(C(=O)OC)c1C	11.2 µM [rising, single point]	–
COc1ccc2[nH]cc(CCNc3ncnc4ccc(-c5ccccc5C#N)cc34)c2c1	15.8 µM [falling, partial curve]	17.8 µM [falling, single point]
COC1CCN(C(=O)c2ccc(OC3CCN(CCc4ccccc4)CC3)cc2)CC1	0.0794 µM [falling, full curve, poor fit]	–
CC(C)CN(C(=O)CN1CCN(c2ccc(O)cc2)CC1)c1c(N)n(CC(C)C)c(=O)[nH]c1=O	0.141 µM [rising, full curve]	0.224 µM [rising, full curve]
c1ccc(N2CCN(c3nc4cc5c(cc4s3)OCCO5)CC2)cc1	5.01 µM [rising, full curve]	–
O=C(Nc1nc(N2C(=O)c3ccccc3C2=O)n(-c2ccccc2)n1)c1ccc(Cl)cc1	–	4.47 µM [falling, single point]
Cc1ncsc1CCOC(=O)C1C2CC3CC(C2)CC1C3 (stereo unspecified)	35.5 µM [rising, single point]	22.4 µM [rising, single point]
O=C(/C=C/c1ccc(Cl)cc1Cl)NC(=S)Nc1ccc(CN2CCOCC2)cc1	5.01 µM [rising, full curve, poor fit]	–
COc1cccc(Oc2cn[nH]c2-c2ccc(OC)cc2O)c1	20 µM [rising, partial curve]	35.5 µM [rising, single point]
CC(=O)c1c(C)[nH]c(C(=O)COC(=O)c2cccc(S(=O)(=O)N(C)c3ccccc3)c2)c1C	28.2 µM [rising, single point]	5.62 µM [rising, single point]
Cc1cc2ncn(/N=C/c3cccnc3)c2cc1C	20 µM [rising, single point]	–
c1ccc(SCc2cc(-c3ccccc3)no2)cc1	35.5 µM [rising, partial curve]	0.126 µM [rising, full curve, poor fit]
COc1cccc(/C=C/C2=CC(C)(C)NC(=S)N2)c1	4.47 µM [rising, partial curve, poor fit]	–
CCCCCCCC1CC(CSc2ncn[nH]2)OC1=O (stereo unspecified)	35.5 µM [rising, single point]	12.6 µM [rising, single point]
